PubChem BioAssay AID588590 (National Center for Advancing Translational Sciences (NCATS), 2011)
The whole screen tested about 390,000 compounds, of which about 4,000 (1%) were called active. This list was built around the results that the source calls inconclusive (neither active nor inactive); the mix of calls is not that of the screen. The call rests on the fitted dose curve; in most records, active means well fitted inhibition curve with a large enough effect; inconclusive means small, poorly fitted or top-dose-only effect, or another doubt; inactive means no such curve, though single readings can be large or run the other way. Potencies of inconclusive entries are doubtful fits and often do not repeat.

By UniProt entry, the sequences of proteins in these tests, tags left out. Where a name states a change or a piece, a line headed by the entry shows the natural chain unless it says otherwise.
UniProt Q9UNA4: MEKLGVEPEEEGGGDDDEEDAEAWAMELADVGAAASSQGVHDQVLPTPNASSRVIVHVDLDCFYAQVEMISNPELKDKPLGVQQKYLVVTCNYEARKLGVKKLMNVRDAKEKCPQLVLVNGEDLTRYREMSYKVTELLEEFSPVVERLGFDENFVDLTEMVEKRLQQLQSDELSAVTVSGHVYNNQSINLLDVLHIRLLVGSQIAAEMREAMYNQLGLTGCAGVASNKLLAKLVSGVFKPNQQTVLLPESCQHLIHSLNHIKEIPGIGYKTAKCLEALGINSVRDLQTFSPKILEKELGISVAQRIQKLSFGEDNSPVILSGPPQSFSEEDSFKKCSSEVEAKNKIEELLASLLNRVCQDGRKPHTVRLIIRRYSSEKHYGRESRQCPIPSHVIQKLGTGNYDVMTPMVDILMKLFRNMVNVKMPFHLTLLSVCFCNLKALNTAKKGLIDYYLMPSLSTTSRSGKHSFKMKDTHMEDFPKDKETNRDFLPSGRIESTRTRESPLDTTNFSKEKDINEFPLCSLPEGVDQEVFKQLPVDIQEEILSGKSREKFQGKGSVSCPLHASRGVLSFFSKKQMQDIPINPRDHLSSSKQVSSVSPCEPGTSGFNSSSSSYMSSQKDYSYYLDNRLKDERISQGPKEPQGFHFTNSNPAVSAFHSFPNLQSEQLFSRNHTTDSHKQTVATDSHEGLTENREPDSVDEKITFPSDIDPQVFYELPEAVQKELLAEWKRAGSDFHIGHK

Target: DNA polymerase iota (Homo sapiens) (UniProt Q9UNA4)
Test: qHTS for Inhibitors of Polymerase Iota
Conditions: Pol iota fluorescent replication assay, 10 min; series mostly up to 115 µM; activity, negative = inhibition: at the top concentration
Procedure, shortened: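 Pol iota at 10 nM preincubated 15 min with compounds at room temperature; reaction started with fluorescent substrate, 50 nM final. Fluorescence read kinetically at 0 and 10 min; buffer-only wells as negative control.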
Potency means the concentration at half of the fitted maximal effect.

| Compound | Potency | activity, negative = inhibition |
| --- | --- | --- |
| CCC(CO)Oc1cc(NCc2cccc(Cl)c2)c2ncn(C(C)C)c2c1 (centres undefined) | inconclusive: 15.8 µM [inhibitor, full curve, poor fit] |  |
| CCn1c(=O)c(C(=O)NCc2cccnc2)c(O)c2ccccc21 |  | inactive: 7.2% |
| O=C(OCC(=O)c1ccc[nH]1)c1cncc(Br)c1 | inconclusive: 20 µM [inhibitor, single point] |  |
| COC(=O)c1cc(=O)n(Cc2ccco2)c(=Nc2ccc(F)cc2)s1 | inconclusive: 20 µM [inhibitor, full curve, poor fit] |  |
| COc1cccc(OCc2nnc(SCC(=O)OCc3ccccc3)o2)c1 | inconclusive: 50.1 µM [inhibitor, partial curve] |  |
| O=C(O)c1nn(CCOc2cccc(Br)c2)c(=O)c2ccccc12 |  | inactive: 56.7% |
| CCN(CC)C(=O)Cn1cc(/C=C(\C#N)C(=O)N2CCN(c3ccccc3)CC2)c2ccccc21 |  | inactive: 18.5% |
| Cc1ccc(OCC(=O)Nc2cccc(C(=O)OCc3cc(=O)n4nc(C)sc4n3)c2)cc1 | inconclusive: 89.1 µM [inhibitor, single point] |  |
| CCN(CC)S(=O)(=O)c1ccc(C(=O)NCC(c2cccs2)N2CCOCC2)cc1 (centres undefined) | inconclusive: 56.2 µM [inhibitor, partial curve, poor fit] |  |
| Cc1ccc(NC(=O)CN2CCC(NC(=O)C3CCCCC3)CC2)c(Br)c1 | inconclusive: 100 µM [inhibitor, single point] |  |
| Cc1cc(NS(=O)(=O)c2ccc(NC(=O)/C=C/c3ccco3)cc2)nc(C)n1 | inconclusive: 20 µM [inhibitor, full curve, poor fit] |  |
| COc1ccc(C(=O)NC(C)c2cccnc2)cc1S(=O)(=O)N(C)Cc1ccccc1 (centres undefined) |  | inactive: 12.6% |
| Cc1ccc2nc(Cl)c3cc(C(=O)NC4CCC(C)CC4)sc3c2c1 (centres undefined) |  | inactive: 20.6% |
| CC1(C)CC(=O)c2sc(NC(=O)Cc3cccs3)nc2C1 |  | inactive: -2.39% |
| CC(C)CNC(=O)c1cccc(NC(=O)c2ccc(NC(=O)c3ccco3)cc2)c1 | inconclusive: 79.4 µM [inhibitor, partial curve, poor fit] |  |
| O=[N+]([O-])c1cc([N+](=O)[O-])c2cccnc2c1Oc1ccccc1O | inconclusive: 25.1 µM [inhibitor, full curve] |  |
| O=C(NCc1ccc2c(c1)OCO2)C1CCCN1S(=O)(=O)c1ccc(F)cc1 (centres undefined) |  | inactive: 48% |
| COc1ccc(NC(=O)CN(C)S(=O)(=O)c2cnc[nH]2)cc1Cl | inconclusive: 89.1 µM [inhibitor, single point] |  |
| COc1ccc(-c2nc3nc(SC)nn3cc2C)cc1F | inconclusive: 89.1 µM [inhibitor, partial curve, poor fit] |  |

Arranged by formula weight (smallest number first): some entries from above.

| Compound | Potency | activity, negative = inhibition |
| --- | --- | --- |
| CC1(C)CC(=O)c2sc(NC(=O)Cc3cccs3)nc2C1 |  | inactive: -2.39% |
| COc1cccc(OCc2nnc(SCC(=O)OCc3ccccc3)o2)c1 | inconclusive: 50.1 µM [inhibitor, partial curve] |  |
| Cc1cc(NS(=O)(=O)c2ccc(NC(=O)/C=C/c3ccco3)cc2)nc(C)n1 | inconclusive: 20 µM [inhibitor, full curve, poor fit] |  |
